Binding data for three molecules are collected here from publication PMC8636471.

Chains of the proteins cited; added tags and fusions are not shown.
UniProt P35222: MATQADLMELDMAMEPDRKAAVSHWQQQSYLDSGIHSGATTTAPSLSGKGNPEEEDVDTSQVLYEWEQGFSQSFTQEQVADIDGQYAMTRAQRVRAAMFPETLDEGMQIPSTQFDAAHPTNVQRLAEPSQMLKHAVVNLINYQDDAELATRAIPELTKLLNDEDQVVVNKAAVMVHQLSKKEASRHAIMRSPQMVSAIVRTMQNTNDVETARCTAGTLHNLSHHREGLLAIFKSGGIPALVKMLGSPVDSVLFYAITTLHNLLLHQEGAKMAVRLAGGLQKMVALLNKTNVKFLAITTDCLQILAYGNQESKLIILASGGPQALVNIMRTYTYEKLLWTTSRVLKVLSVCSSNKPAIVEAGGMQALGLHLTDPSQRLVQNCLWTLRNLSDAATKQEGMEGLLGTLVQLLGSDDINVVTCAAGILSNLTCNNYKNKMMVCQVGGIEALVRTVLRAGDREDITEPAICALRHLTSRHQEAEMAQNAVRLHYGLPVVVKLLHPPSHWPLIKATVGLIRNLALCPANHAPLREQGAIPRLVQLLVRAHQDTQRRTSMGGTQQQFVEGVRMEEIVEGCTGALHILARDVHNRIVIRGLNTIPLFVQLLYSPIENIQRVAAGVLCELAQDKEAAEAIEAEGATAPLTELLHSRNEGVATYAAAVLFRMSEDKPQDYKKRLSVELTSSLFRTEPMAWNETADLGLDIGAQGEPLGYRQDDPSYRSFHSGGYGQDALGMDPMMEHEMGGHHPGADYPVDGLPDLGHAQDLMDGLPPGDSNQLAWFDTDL

Assay [1] addresses T1, GST-DSTYK fusion protein (UniProt Q6XUX3).
T1 sequence: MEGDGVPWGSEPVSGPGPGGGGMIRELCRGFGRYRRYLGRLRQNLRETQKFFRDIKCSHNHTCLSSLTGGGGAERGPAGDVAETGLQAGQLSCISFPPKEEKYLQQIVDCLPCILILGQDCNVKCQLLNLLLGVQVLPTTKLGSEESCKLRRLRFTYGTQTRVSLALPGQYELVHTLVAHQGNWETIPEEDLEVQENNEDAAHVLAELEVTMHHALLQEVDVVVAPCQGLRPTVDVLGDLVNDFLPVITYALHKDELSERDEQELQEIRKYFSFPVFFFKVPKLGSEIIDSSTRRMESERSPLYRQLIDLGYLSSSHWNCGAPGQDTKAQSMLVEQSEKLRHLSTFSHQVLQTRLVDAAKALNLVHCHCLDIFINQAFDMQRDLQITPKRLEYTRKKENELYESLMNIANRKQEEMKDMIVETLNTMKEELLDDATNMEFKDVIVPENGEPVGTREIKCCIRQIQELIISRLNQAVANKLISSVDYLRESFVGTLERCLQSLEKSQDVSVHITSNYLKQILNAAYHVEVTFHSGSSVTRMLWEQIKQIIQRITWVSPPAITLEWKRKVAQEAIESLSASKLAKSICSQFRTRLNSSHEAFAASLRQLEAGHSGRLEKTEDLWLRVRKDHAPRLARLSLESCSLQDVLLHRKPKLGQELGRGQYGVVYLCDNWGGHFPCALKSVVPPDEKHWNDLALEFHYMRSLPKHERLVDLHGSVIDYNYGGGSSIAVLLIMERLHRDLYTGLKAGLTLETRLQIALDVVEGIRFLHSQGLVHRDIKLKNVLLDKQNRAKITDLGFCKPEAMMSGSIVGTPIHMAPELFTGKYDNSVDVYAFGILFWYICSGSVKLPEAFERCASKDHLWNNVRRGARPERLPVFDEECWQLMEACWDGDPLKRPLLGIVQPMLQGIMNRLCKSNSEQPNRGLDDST
The experiment in a line: pull-down; 5 µg of GST or GST-DSTYK fusion protein added to cell lysate (RIPA buffer) at 4 °C, Sepharose 4B beads, western blot for endogenous β-catenin; only the target purified.

Assay [2] concerns the target T2, Flag-DSTYK (dual serine/threonine and tyrosine protein kinase), full length (UniProt Q6XUX3).
T2 sequence: T1 sequence
Description: co-IP; exogenously expressed Flag-DSTYK (or its fragments) and myc-β-catenin; cells harvested 48 h after transfection, RIPA buffer, antibody overnight at 4 °C with IgG as control, protein A beads, western blot. (In general: Immunoblotting shows a protein as a band on a membrane.)

The target of assay [3] is T3, N-terminus of DSTYK (1-500 aa) (UniProt Q6XUX3).
T3 sequence: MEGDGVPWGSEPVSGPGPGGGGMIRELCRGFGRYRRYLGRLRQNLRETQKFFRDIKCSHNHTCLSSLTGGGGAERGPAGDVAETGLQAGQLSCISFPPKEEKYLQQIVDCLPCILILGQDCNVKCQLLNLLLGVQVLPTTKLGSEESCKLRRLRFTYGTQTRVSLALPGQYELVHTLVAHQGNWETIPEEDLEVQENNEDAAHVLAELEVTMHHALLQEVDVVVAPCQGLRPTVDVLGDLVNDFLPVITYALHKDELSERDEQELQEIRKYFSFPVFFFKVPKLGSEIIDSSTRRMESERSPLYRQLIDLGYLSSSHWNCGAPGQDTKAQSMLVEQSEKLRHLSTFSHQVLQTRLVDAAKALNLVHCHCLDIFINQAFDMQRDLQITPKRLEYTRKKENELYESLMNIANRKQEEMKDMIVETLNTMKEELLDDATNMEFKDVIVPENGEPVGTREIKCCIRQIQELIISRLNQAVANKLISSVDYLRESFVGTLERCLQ
The assay is described as above.

Assay [4] has as its target endogenous β-catenin (human (endogenous in lung adenocarcinoma cells)) (UniProt P35222). Description: co-IP; endogenous proteins in lung adenocarcinoma cells (by the text); cells lysed with RIPA buffer, anti-β-catenin antibody for immunoprecipitation, western blot.

No constants are given. Whether binding was seen depends on the method and setting. In cells and extracts the contact can be indirect. Some results given as binding are weak or reduced against the parent protein; the word gives no strength. For some of these results: Sequences can lack the tags named with a protein.

As for “endogenous β-catenin (from UniProt P35222 1-781)”, in assay [1], the binding entry is “binds”.
As for “myc-β-catenin (from UniProt P35222 1-781)”, the binding entry in assay [2] and in assay [3] was “binds” in each case.

B1: endogenously expressed DSTYK (enzyme, UniProt Q6XUX3 1-929)
chain: T1 sequence
As to B1, the binding result in assay [4] is reported as “binds”.
